# Values from PubChem BioAssay AID1259308 (NCATS, 2017).
# Purpose: 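Genes whose loss raises luciferase production in HEK293 cells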 (primary screen)
# Cell system: human HEK293 embryonic kidney cells stably expressing firefly luciferase (HEK-CMV-Luc2-Hygro)
# Knock-down reagent: single siRNA against human genes, 0.8 pmol siRNA per well
# Time to read-out: 72 h
# Measurement: 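Reporter luminescence and viable-cell signal on separate replicate plates, given as percent of non-targeting control and median/MAD z-scores, plus per-cell luciferase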
# Scale: total luciferase, z-score and total luciferase, % of control: higher = more reporter protein produced
# Active means: 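Active when the median/MAD z-score for overall luciferase is greater than 3; a gene was taken forward for validation with new siRNAs if at least two of its three siRNAs passed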
# Calls: active = raised luciferase; inactive = no rise
# This is a random part of about 59,000 deposited reagents. Of all reagents, about 1,510 (2.6%) are marked active. 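Calls use total luciferase alone and ignore viability, so some active siRNAs may act by altering cell number.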 A number with no mark means an inactive call. Reagents against one gene are numbered here. Not all columns of the deposit are shown.
"total luciferase, z-score","total luciferase, % of control",gene knocked down,reagent
1,102,TMEM86A,1
3.07 (active),143,TMEM86A,2
-0.478,72.4,TMEM86A,3
0.629,94.4,MSX1,1
-0.282,76.3,MSX1,2
0.523,92.3,MSX1,3
1.99,121,HLA-K,1
-1.89,44.3,HLA-K,2
2,122,HLA-K,3
-0.659,68.8,SPSB2,1
0.712,96,SPSB2,2
-0.421,73.5,SPSB2,3
-0.595,70,HSFX2,1
-0.129,79.3,HSFX2,2
-0.725,67.5,HSFX2,3
-2.4,34.1,CCL4,1
0.658,95,CCL4,2
0.827,98.3,CCL4,3
0.426,90.4,B4GALNT1,1
-0.943,63.1,B4GALNT1,2
0.829,98.4,B4GALNT1,3
0.0591,83.1,ADCY6,1
2.51,132,ADCY6,2
2.07,123,ADCY6,3
